Laboratory results reported in article PMC11091053.
Results are given in words; binding and its absence hold for the method and conditions named. Binding seen in cells or lysates may run through a third protein. A yes stands for co-enrichment or nearness to the bait. Other partners may have been found.

Amino acid sequences for entries named in this document (tags omitted). A change or cut given only in a name is not applied to a line headed by its entry.
UniProt P62897: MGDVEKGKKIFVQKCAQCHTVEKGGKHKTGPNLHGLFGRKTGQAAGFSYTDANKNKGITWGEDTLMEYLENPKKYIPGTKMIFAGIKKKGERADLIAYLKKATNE

Target: T1, Pirh2 (p53-induced RING-H2 protein), endogenous in N2A cells (mouse (endogenous in N2A)) (UniProt Q9CR50)
T1 sequence: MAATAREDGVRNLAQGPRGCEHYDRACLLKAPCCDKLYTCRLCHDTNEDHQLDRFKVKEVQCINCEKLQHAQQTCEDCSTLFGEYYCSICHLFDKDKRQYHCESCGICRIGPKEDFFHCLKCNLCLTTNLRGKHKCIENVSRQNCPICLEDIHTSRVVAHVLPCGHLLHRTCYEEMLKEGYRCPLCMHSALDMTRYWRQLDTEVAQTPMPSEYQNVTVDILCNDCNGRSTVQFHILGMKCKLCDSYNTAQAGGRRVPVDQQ
Test: affinity purification with mass spectrometry; co-immunoprecipitation with Pirh2 antibody from N2A cell lysate (control and treated, with or without MG132) and tissue lysates of cortex and hippocampus; SDS-PAGE bands, trypsin digestion, MALDI-TOF/TOF, MASCOT

- binding: binds
Substance: cytochrome c, endogenous in N2A cells (from UniProt P62897 1-105)
